Test results from US20210145768A1, “MODULATING IMMUNE RESPONSE VIA TARGETING OF OLFACTORY RECEPTOR ACTIVITY” (La Jolla Institute for Allergy and Immunology, priority 2018, published 2021).

Experiment: Plasma octanal quantification by stable isotope dilution LC/MS/MS, mouse

SMILES: CCCCCCCC=O [octanal]
- octanal in plasma (Apoe−/− mice receiving CD and WD, endogenous): elevated
- octanal level in plasma, average (C57BL/6J mice fed WD, endogenous): 3.5 µM
- octanal concentration, fold less than wild-type mice (mice lacking gut microbiota (germ free) vs wild-type): 3 fold
